# “And” between values parts separate entries of the source, which are not always exact repeats. Equal entries are not always repeated. At least one read-out could not be matched to a standard name with certainty.
# Test: Hydrolysis of compounds and release of dexamethasone in vitreous humor homogenate (LC-MS/MS)
# Conditions: rabbit vitreous humor homogenate, 10.0 mg/ml protein, 37° C., 0-72 h, in vitro
substance,measurement,value
mPEG-PrA-Dexa [Compound 2],T ½ in vitreous humor (half-life of hydrolysis and release of dexamethasone),~17 h and 17.2 h

# Reference: patent US20230398233A1, “OCULAR ANTIBODY-DRUG CONJUGATES” (ADS THERAPEUTICS LLC, priority 2020, published 2023)
